Some entries share one result that the patent states for a list of compounds.
Test system: human MSCs
Assay: Gene expression analysis by qPCR in human MSCs
Format: cell-based
Settings: Example 8; 250 μM VPA, 500 nM curcumin; FIG. 13

| Structure (SMILES) | expression levels of FGF-21, CXCR4 and Hsp70 [fold] |
| --- | --- |
| CCCC(CCC)C(=O)O [VPA, valproic acid] | ≤ 25 |
| COc1cc(/C=C/C(=O)CC(=O)/C=C/c2ccc(O)c(OC)c2)ccc1O [curcumin] | ≤ 25 |
